Measurements as given in paper PMC10625211.
No constants are given. Whether binding was seen depends on the method and setting. Binding seen in cells or lysates may run through a third protein. Some binding calls cover weakened binding; strength is not graded here. Sequences can lack the tags named with a protein.

Molecular target: T1, Flag-tagged APOL1-G0 (human) (UniProt O14791)
T1 sequence: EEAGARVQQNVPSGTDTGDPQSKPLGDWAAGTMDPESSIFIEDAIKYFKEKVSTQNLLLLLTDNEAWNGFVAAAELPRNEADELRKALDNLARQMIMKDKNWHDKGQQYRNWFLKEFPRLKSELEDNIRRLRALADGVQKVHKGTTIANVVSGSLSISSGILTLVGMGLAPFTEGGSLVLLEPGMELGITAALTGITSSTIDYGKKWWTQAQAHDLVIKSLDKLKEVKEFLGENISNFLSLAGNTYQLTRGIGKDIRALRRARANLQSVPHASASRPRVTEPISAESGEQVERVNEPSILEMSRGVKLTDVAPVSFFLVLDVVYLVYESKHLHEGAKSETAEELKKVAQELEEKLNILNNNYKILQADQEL
Assay: co-IP; HEK 293T cells co-transfected with Flag-tagged APOL1 variant (100 ng) and HA-tagged SNARE (900 ng), harvested 16 h after transfection; lysis in 50 mM Tris-HCl pH 7.4, 150 mM NaCl, 2 mM MgCl2, 0.5% Nonidet P-40; immunoprecipitation with anti-Flag M2 affinity gel, immunoblotting with Flag or HA antibody

binding: binds
B1: HA-tagged dSyb (protein, UniProt P18489 1-152)
chain: MENNEAPSPSGSNNNDFPILPPPPNANDNYNQFGDHQIRNNNAAQKKLQQTQAKVDEVVGIMRVNVEKVLERDQKLSELGERADQLEQGASQFEQQAGKLKRKQWWANMKMMIILGVIAVVLLIIVLVSVWPSSSDSGSGGGNKAITQAPPH
